# Screen size: about 320,000 compounds; about 2,100 (0.66%) were called active. The inconclusive results got no clear call from the source; some entries with a clear call stand among them for comparison. Calls come from the whole dose curve; as a rule, active = well fitted inhibition curve with a large enough effect in the signal ratio, with a control signal flat (not every such curve was filed as active); inconclusive = small, poorly fitted or top-dose-only effect, or effect the other way, or a change in a side signal; inactive = flat fitted curve, though single readings scatter; the % refers to the signal ratio. A potency beside an inconclusive call is a rough fit, not a confirmed value.
# Experiment: qHTS Assay for Lipid Storage Modulators in Drosophila S3 Cells
# Conditions: BODIPY lipid droplet fluorescence, 18-24 h, cells fed with added oleic acid; lipid storage change, negative = inhibition: at 46.1 µM (top of the series) unless noted
# How it was run: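 Drosophila S3 cells loaded with oleic acid (400 uM, as added) and compounds at several concentrations; lipid droplets imaged by 488-nm laser-scanning cytometry, 500–530 nm intensity and object ratio to cell channel. Percent activity normalized to 20 uM Triacsin C.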
# % is set by controls: 0 for no effect and ±100 for the full control effect; potency is the fitted concentration of half-maximal effect.
Compound,Potency,"lipid storage change, negative = inhibition"
O=C(NC1CCSc2ccccc21)c1ccc(F)c(S(=O)(=O)N2CCOCC2)c1 (stereo not given),"inconclusive: 0.326 µM [activator, full curve, poor fit]",–
CC(C)c1nnc(NC(=O)c2ccc3c(c2)OCO3)s1,–,inconclusive: 0.213%
COCCCNS(=O)(=O)c1ccc2[nH]c(=O)[nH]c2c1,–,inconclusive: 19.6%
N#CC[C@H](Cc1ccccc1)N1CCN(Cc2ccccc2)CCC1=O,–,inconclusive: 65.6%
Cc1ccc(SCCNC(=O)CN(c2ccc3c(c2)OCO3)S(C)(=O)=O)cc1,"inconclusive: 14.6 µM [rising, partial curve]",–
N#C/C(=C\c1ccc(OC(=O)c2ccc(Br)s2)cc1)c1nc2ccccc2[nH]1,–,inconclusive: 37.8%
Cc1ccc(-c2cc(C(=O)Nc3ccc(S(=O)(=O)Nc4cc(C)on4)cc3)c3ccccc3n2)c(C)c1,"inconclusive: 29.1 µM [falling, single point]",–
CCC(C)NC(=O)/C=C/c1ccc(S(=O)(=O)NCc2ccco2)cc1 (stereo not given),–,inconclusive: -17.7%
CN(C1CCS(=O)(=O)C1)S(=O)(=O)c1ccccc1 (stereo not given),"inconclusive: 29.1 µM [falling, single point]",–
CCOCCOc1nc(C)cc(C)c1S(=O)(=O)c1ccccc1C,–,inconclusive: 29.2%
CCOC(=O)C1CCN(C(=O)c2cc3c(s2)-c2ccccc2OC3)CC1,"inconclusive: 0.259 µM [activator, full curve, poor fit]",–
CC(C)Oc1ccc(S(=O)(=O)N2CCOCC2)cc1NC(=O)C1=NN(c2ccccc2)C(=O)CC1,"inconclusive: 6.51 µM [falling, single point]",–
Cc1ccccc1C(=O)O/N=C(\N)c1ccc([N+](=O)[O-])cc1,–,inconclusive: -15.8%
C/C(CCN1CCCCc2nc(C)c(C)cc21)=N\O[C@@H](C)c1cn([C@H](CO)Cc2ccccc2)nn1,–,inconclusive: -4.26%
Cc1ccc(NCC(=O)Nc2c(C)n(C)n(-c3ccccc3)c2=O)cc1S(=O)(=O)N(C)C,–,inconclusive: 10.5%
COc1ccc2c(CC(=O)N3CCN(S(=O)(=O)c4ccc(F)cc4)CC3)coc2c1,"inconclusive: 29.1 µM [activator, single point]",–
CCOc1ccc(C2NC(=O)NC(C)=C2[N+](=O)[O-])cc1OC (stereo not given),"inconclusive: 3.26 µM [falling, single point]",–
CCc1cc2c(=O)c(-c3nc(C)cs3)coc2cc1O,–,inconclusive: 19%
O=C(c1cc(=O)c2ccccc2o1)N1CCN(c2ccccc2)CC1,"inconclusive: 0.461 µM [activator, single point]",–
S=C(Nc1ccc(Br)cc1)NC1CCCC1,–,inconclusive: -1.58%
CCOc1ccc(/C=C2/Sc3ccc(C(=O)NCC4CCCO4)cc3N(C)C2=O)cc1OC (stereo not given),"inconclusive: 6.51 µM [falling, single point]",–
Cc1ccc(C(=O)c2ccccc2C(=O)OCC(=O)Nc2cccc([N+](=O)[O-])c2)cc1,–,inconclusive: -5.41%
NC(=O)c1ccsc1NC(=O)CSc1nc2ccccc2c(=O)n1CCCO,–,inconclusive: 46.1%
COc1ccc(C2C(C#N)=C(N)Nc3onc(C(C)(C)C)c32)c(OC)c1 (stereo not given),–,inconclusive: -6.01%
O=C(O)c1ccc(CSc2nnc(-c3ccccc3Br)o2)cc1,–,inconclusive: 154%

Compound,Potency,"lipid storage change, negative = inhibition"
O=C1CC(SCCO)C(=O)N1c1ccc(Oc2ccccc2)cc1 (stereo not given),–,inconclusive: 35.2%
CCOC(=O)c1nn(-c2ccc3c(c2)OCO3)cc1O,"inconclusive: 32.6 µM [activator, partial curve, poor fit]",–
O=C(CCc1n[nH]c(=O)[nH]c1=O)N/N=C/c1ccc(Br)o1,–,inconclusive: -13.4%
COc1ccc(Cl)cc1NC(=O)CSc1nnc(C)c(=O)n1N,–,inconclusive: 24.5%
C[C@@H](C(=O)Nc1ccc2ccccc2c1)[C@H]1C[C@]1(C)[C@H](NS(=O)(=O)c1ccccc1)c1ccccc1,–,inconclusive: 30%
COC(=O)/C(=C1/Oc2ccc(C(C)(C)C)cc2S1)C(F)(F)F,–,inconclusive: -7.97%
CCN(CC)c1ccc(NC(=O)c2c(OC)cccc2OC)c(C)c1,–,inconclusive: 9.3%
O=C(NCC(=O)N1CCN(C(c2ccccc2)c2ccccc2)CC1)c1ccc(Br)o1,–,inconclusive: -8.28%
Cc1cc(S(=O)(=O)NCC(c2ccc(F)cc2)N2CCN(C)CC2)ccc1F (stereo not given),–,inconclusive: -2.51%
COc1cccc(-c2cccc(NC(=O)C3CCN(Cc4cccc(C)n4)CC3)c2)c1,"inconclusive: 0.82 µM [activator, full curve, poor fit]",–
Cc1nc2c(-c3ccc(F)cc3)c(C)nn2c(C)c1CCC(=O)N1CCN(c2ccccn2)CC1,–,inconclusive: 60.3%
CCOc1ccccc1CN1CCN(Cc2ccc3cccc(OC)c3n2)CC1CCO (stereo not given),"inconclusive: 0.731 µM [activator, partial curve, poor fit]",–
CCC1=Nc2cc(C(=O)NCCN3CCOCC3)ccc2Sc2ccc(C)cc21,–,inconclusive: 69.7%
O=C(/C=C/c1ccccc1)OCC(=O)c1ccc[nH]1,–,inconclusive
COc1ccccc1NC1=C(Cl)C(=O)N(C2CCCCC2)C1=O,–,inconclusive: 7.25%
CC(C)[C@@H](C(=O)N[C@@H](C(=O)O)c1ccccc1)N1C(=O)N2CCc3c([nH]c4ccccc34)[C@@]2(C)C1=O,–,inconclusive: 18.6%
Cc1cc(C)n(-c2nc(NCCCN(C)C)c3c4c(sc3n2)CCCC4)n1,–,inconclusive: 18.9%
CCCC(=O)Nc1ccc2c(c1)Cc1ccccc1-2,"inconclusive: 14.6 µM [activator, partial curve, poor fit]",–
S=C(Nc1ccccc1Cl)N(Cc1ccccc1)Cc1ccccn1,"inconclusive: 2.06 µM [falling, full curve, poor fit]",–
CCC(C)(C)c1ccc(Oc2cccc(C(=O)O)c2)cc1,–,inconclusive: -11.4%
O=C(NCc1ccc(F)c(F)c1)C1CCC(=O)N(CCc2ccccc2)C1 (stereo not given),–,inconclusive: 14.2%
O=C(NCC1CCCO1)c1cnn2c1NC(c1ccccc1)CC2C(F)(F)F (stereo not given),"inconclusive: 6.51 µM [activator, partial curve, poor fit]",–
CC(C)C1NC2(C(=O)c3ccccc3C2=O)C2C(=O)N(c3ccc(F)cc3)C(=O)C12 (stereo not given),"inconclusive: 32.6 µM [falling, single point]",–
COc1cc2[nH]c(=O)n(Cc3ccc(C(=O)NCC4CCCO4)cc3)c(=O)c2cc1OC (stereo not given),–,inactive: 4.38%
CN(C)S(=O)(=O)c1ccc(Cl)c(C(=O)OCC(=O)NC(=O)NC2CCCC2)c1,–,inconclusive: -1.28%

# Record cards, as listed above.
# C/C(CCN1CCCCc2nc(C)c(C)cc21)=N\O[C@@H](C)c1cn([C@H](CO)Cc2ccccc2)nn1 reads lipid storage change, negative = inhibition: inconclusive: -4.26%
# O=C(CCc1n[nH]c(=O)[nH]c1=O)N/N=C/c1ccc(Br)o1 reads lipid storage change, negative = inhibition: inconclusive: -13.4%
# O=C(NCc1ccc(F)c(F)c1)C1CCC(=O)N(CCc2ccccc2)C1 (stereo not given) reads lipid storage change, negative = inhibition: inconclusive: 14.2%
# Cc1cc(S(=O)(=O)NCC(c2ccc(F)cc2)N2CCN(C)CC2)ccc1F (stereo not given) reads lipid storage change, negative = inhibition: inconclusive: -2.51%

# Later entries

Compound,Potency,"lipid storage change, negative = inhibition"
Cc1ccc(S(=O)(=O)NCCCCCC(=O)Nc2nccs2)cc1,–,inconclusive: -23.9%
COc1ccc(NC(=O)COC(=O)c2c(C)noc2C)c(OC)c1,"inconclusive: 2.31 µM [rising, partial curve]",–
O=C(COC(=O)C1(c2ccc(F)cc2)CCCC1)N1CCc2ccccc21,–,inconclusive: 37.4%
Cc1cc(C)c(OCC(=O)Nc2ccc(NC(=O)c3ccco3)cc2)c([N+](=O)[O-])c1,–,inconclusive: 31.2%
O=C(COc1ccc2c(-c3ccccc3)cc(=O)oc2c1)NCCCn1ccnc1,–,inconclusive: -32.9%
Cc1ccc(C(=O)CCC2CCCC2=O)cc1 (stereo not given),–,inconclusive: 22.5%
Cc1ccc(NC(=O)C2CC(Cl)=CCC2C(=O)O)c([N+](=O)[O-])c1 (stereo not given),–,inconclusive: 36.2%
Cc1ccc(CN(C)C(=O)C2CCCN2C(=O)c2cccs2)o1 (stereo not given),–,inconclusive: 9.26%
CNC(=S)N1CCC(NC(=O)c2ccco2)CC1,"inconclusive: 16.4 µM [falling, partial curve, poor fit]",–
O=C(NCc1nnc(SCC(=O)N2CCc3ccccc32)o1)c1cccs1,–,inactive: 2.4%
CC1CN(C(=O)COC(=O)c2cc(S(N)(=O)=O)c(Cl)cc2Cl)CC(C)O1 (stereo not given),–,inconclusive: -49.4%
COc1ccc(OCc2nnc(SCC(=O)N(C)Cc3ccccc3)n2N)cc1,–,inconclusive: 9.03%
CCO/N=C/c1ccc(OC)c(Oc2nc(OC)cc(OC)n2)c1,–,inconclusive: 8.86%
CNC(=O)Nc1cccc(C(F)(F)F)c1,–,inactive: 10.6%
COCC(=O)Nc1cc([N+](=O)[O-])ccc1OC,–,inconclusive: -10.1%
CCCC(=O)NCCSC,–,inactive: 5.9%
CC1CC2(CCCC2)N(C(=O)N(C)C)c2ccc(F)cc21 (stereo not given),"inconclusive: 2.31 µM [activator, full curve, poor fit]",–
Cc1ccc(Cc2nnc(SCC(=O)Nc3c(C)cccc3C)[nH]c2=O)cc1,–,inconclusive: 11.1%
NS(=O)(=O)c1ccc(NC(=S)N2CCN(Cc3ccc(Cl)c(Cl)c3)CC2)cc1,–,inconclusive: -21.6%
Cc1cccc(NC(=O)COc2cccc3c2CCN(C)C3=O)c1,–,inconclusive: 0.0461%
CCOC(=O)C(=Nc1ccc(Cl)cc1)NO,–,inconclusive: -16.6%
N#CCC(=O)Nc1ccc(C(=O)OCC(=O)Nc2ccccc2Sc2ccccc2)cc1,"inconclusive: 0.092 µM [rising, full curve, poor fit]",–
CC(C(=O)Nc1ccc2c(c1)OCO2)N1CCC(N2CCCCC2)CC1 (stereo not given),–,inconclusive: 7.28%
CC(=O)Nc1c(I)c(C(=O)N[C@H]2C(O)O[C@H](CO)[C@@H](O)[C@@H]2O)c(I)c(N(C)C(C)=O)c1I (stereo not given in full),–,inconclusive: 13.5%
Cc1ccccc1C1=NC(C(F)(F)F)(C(F)(F)F)c2c(n(C)c(=O)n(C)c2=O)N1,"inconclusive: 0.58 µM [activator, single point]",–
